Results reported in doi:10.1101/2024.04.24.590896 (bioRxiv, 2024).
Results are given in words; binding and its absence hold for the method and conditions named. Some binding calls cover weakened binding; strength is not graded here.

Molecular target: T1, syntaxin 18 SNARE domain (aa 229-312) (Mus musculus, UniProt Q8VDS8 229-312)
T1 sequence: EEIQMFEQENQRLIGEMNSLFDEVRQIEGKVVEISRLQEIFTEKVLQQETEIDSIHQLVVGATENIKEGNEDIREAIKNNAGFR
Assay: native gel or EMSA + SEC

binding	Substance
binds	Mixed_SNAP1 (Membrin, aa 119-189; Use1, aa 174-239) (from UniProt O35166;Q9CQ56)
binds	Mixed_SNAP2 (Sec20, aa 133-198; Bet1, aa 1-95) (from UniProt Q6QD59;O35623)
